The text below walks through data of paper PMC4384635, “Autoinhibition of Bruton's tyrosine kinase (Btk) and activation by soluble inositol hexakisphosphate” (eLife, 2015).

Chains of the proteins cited; added tags and fusions are not shown. Lines headed by an entry give the natural chain unless they say otherwise; changes in a name come on top. A line that says so, or that is headed by a name, gives the form on record, which may keep a tag or linker. Residues count along the entry.
full-length bovine Btk (residues 1 to 659) (Q3ZC95, form named): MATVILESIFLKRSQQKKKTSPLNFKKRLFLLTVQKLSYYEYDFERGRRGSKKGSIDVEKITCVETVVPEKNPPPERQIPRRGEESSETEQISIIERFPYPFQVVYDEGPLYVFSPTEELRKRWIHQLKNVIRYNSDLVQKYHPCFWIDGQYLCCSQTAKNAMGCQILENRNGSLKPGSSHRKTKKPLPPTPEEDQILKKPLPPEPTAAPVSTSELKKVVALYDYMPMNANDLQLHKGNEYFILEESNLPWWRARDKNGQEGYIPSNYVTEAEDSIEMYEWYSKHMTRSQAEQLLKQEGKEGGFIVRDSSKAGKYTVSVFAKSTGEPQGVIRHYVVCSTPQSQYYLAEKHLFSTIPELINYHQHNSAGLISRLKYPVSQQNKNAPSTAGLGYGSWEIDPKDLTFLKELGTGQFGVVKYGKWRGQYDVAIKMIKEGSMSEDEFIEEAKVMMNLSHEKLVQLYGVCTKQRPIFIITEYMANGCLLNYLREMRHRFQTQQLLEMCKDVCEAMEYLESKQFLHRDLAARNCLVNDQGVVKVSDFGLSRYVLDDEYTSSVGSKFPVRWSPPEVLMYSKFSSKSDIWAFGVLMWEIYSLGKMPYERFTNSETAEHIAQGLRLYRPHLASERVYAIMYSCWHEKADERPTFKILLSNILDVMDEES

The assay deals with full-length bovine Btk (residues 1 to 659) (bovine) (UniProt Q3ZC95). Kind of assay: SEC + other: multi-angle light scattering; in solution with IP6, Btk concentrations up to 30 μM; both purified.

No constants are given. Whether binding was seen depends on the method and setting.

Regarding “full-length bovine Btk (residues 1 to 659) (from UniProt Q3ZC95 1-659) (enzyme)”, the binding result is given as “no binding (tested: up to 30 μM)”.
